Where two headings read alike, the source gives them in different places. No constants are given. Whether binding was seen depends on the method and setting. In cells and extracts the contact can be indirect. These calls come from enrichment with a bait or labelling near it, and not all partners need be listed. For some assays here: No binding means not detected with the bait.
B1: Serpin B3 (protein, UniProt P29508 1-390)
chain: MNSLSEANTKFMFDLFQQFRKSKENNIFYSPISITSALGMVLLGAKDNTAQQIKKVLHFDQVTENTTGKAATYHVDRSGNVHHQFQKLLTEFNKSTDAYELKIANKLFGEKTYLFLQEYLDAIKKFYQTSVESVDFANAPEESRKKINSWVESQTNEKIKNLIPEGNIGSNTTLVLVNAIYFKGQWEKKFNKEDTKEEKFWPNKNTYKSIQMMRQYTSFHFASLEDVQAKVLEIPYKGKDLSMIVLLPNEIDGLQKLEEKLTAEKLMEWTSLQNMRETRVDLHLPRFKVEESYDLKDTLRTMGMVDIFNGDADLSGMTGSRGLVLSGVLHKAFVEVTEEGAEAAAATAVVGFGSSPTSTNEEFHCNHPFLFFIRQNKTNSILFYGRFSSP
B2: Plakophilin-1 (protein, UniProt Q13835 1-747)
chain: MNHSPLKTALAYECFQDQDNSTLALPSDQKMKTGTSGRQRVQEQVMMTVKRQKSKSSQSSTLSHSNRGSMYDGLADNYNYGTTSRSSYYSKFQAGNGSWGYPIYNGTLKREPDNRRFSSYSQMENWSRHYPRGSCNTTGAGSDICFMQKIKASRSEPDLYCDPRGTLRKGTLGSKGQKTTQNRYSFYSTCSGQKAIKKCPVRPPSCASKQDPVYIPPISCNKDLSFGHSRASSKICSEDIECSGLTIPKAVQYLSSQDEKYQAIGAYYIQHTCFQDESAKQQVYQLGGICKLVDLLRSPNQNVQQAAAGALRNLVFRSTTNKLETRRQNGIREAVSLLRRTGNAEIQKQLTGLLWNLSSTDELKEELIADALPVLADRVIIPFSGWCDGNSNMSREVVDPEVFFNATGCLRKRLGMRELLALVPQRATSSRVNLSSADAGRQTMRNYSGLIDSLMAYVQNCVAASRCDDKSVENCMCVLHNLSYRLDAEVPTRYRQLEYNARNAYTEKSSTGCFSNKSDKMMNNNYDCPLPEEETNPKGSGWLYHSDAIRTYLNLMGKSKKDATLEACAGALQNLTASKGLMSSGMSQLIGLKEKGLPQIARLLQSGNSDVVRSGASLLSNMSRHPLLHRVMGNQVFPEVTRLLTSHTGNTSNSEDILSSACYTVRNLMASQPQLAKQYFSSSMLNNIINLCRSSASPKAAEAARLLLSDMWSSKELQGVLRQQGFDRNMLGTLAGANSLRNFTSRF
B3: Desmoglein-3 (protein, UniProt P32926 50-999)
chain: EWVKFAKPCREGEDNSKRNPIAKITSDYQATQKITYRISGVGIDQPPFGIFVVDKNTGDINITAIVDREETPSFLITCRALNAQGLDVEKPLILTVKILDINDNPPVFSQQIFMGEIEENSASNSLVMILNATDADEPNHLNSKIAFKIVSQEPAGTPMFLLSRNTGEVRTLTNSLDREQASSYRLVVSGADKDGEGLSTQCECNIKVKDVNDNFPMFRDSQYSARIEENILSSELLRFQVTDLDEEYTDNWLAVYFFTSGNEGNWFEIQTDPRTNEGILKVVKALDYEQLQSVKLSIAVKNKAEFHQSVISRYRVQSTPVTIQVINVREGIAFRPASKTFTVQKGISSKKLVDYILGTYQAIDEDTNKAASNVKYVMGRNDGGYLMIDSKTAEIKFVKNMNRDSTFIVNKTITAEVLAIDEYTGKTSTGTVYVRVPDFNDNCPTAVLEKDAVCSSSPSVVVSARTLNNRYTGPYTFALEDQPVKLPAVWSITTLNATSALLRAQEQIPPGVYHISLVLTDSQNNRCEMPRSLTLEVCQCDNRGICGTSYPTTSPGTRYGRPHSGRLGPAAIGLLLLGLLLLLLAPLLLLTCDCGAGSTGGVTGGFIPVPDGSEGTIHQWGIEGAHPEDKEITNICVPPVTANGADFMESSEVCTNTYARGTAVEGTSGMEMTTKLGAATESGGAAGFATGTVSGAASGFGAATGVGICSSGQSGTMRTRHSTGGTNKDYADGAISMNFLDSYFSQKAFACAEEDDGQEANDCLLIYDNEGADATGSPVGSVGCCSFIADDLDDSFLDSLGPKFKKLAEISLGVDGEGKEVQPPSKDSGYGIESCGHPIEVQQTGFVKCQTLSGSQGASALSTSGSVQPAVSIPDPLQHGNYLVTETYSASGSLVQPSTAGFDPLLTQNVIVTERVICPISSVPGNLAGPTQLRGSHTMLCTEDPCSRLI
B4: Peroxiredoxin-1 (protein, UniProt Q06830 1-199)
chain: MSSGNAKIGHPAPNFKATAVMPDGQFKDISLSDYKGKYVVFFFYPLDFTFVCPTEIIAFSDRAEEFKKLNCQVIGASVDSHFCHLAWVNTPKKQGGLGPMNIPLVSDPKRTIAQDYGVLKADEGISFRGLFIIDDKGILRQITVNDLPVGRSVDETLRLVQAFQFTDKHGEVCPAGWKPGSDTIKPDVQKSKEYFSKQK
B5: Thymidine phosphorylase (protein, UniProt P19971 11-482)
chain: APPAPGDFSGEGSQGLPDPSPEPKQLPELIRMKRDGGRLSEADIRGFVAAVVNGSAQGAQIGAMLMAIRLRGMDLEETSVLTQALAQSGQQLEWPEAWRQQLVDKHSTGGVGDKVSLVLAPALAACGCKVPMISGRGLGHTGGTLDKLESIPGFNVIQSPEQMQVLLDQAGCCIVGQSEQLVPADGILYAARDVTATVDSLPLITASILSKKLVEGLSALVVDVKFGGAAVFPNQEQARELAKTLVGVGASLGLRVAAALTAMDKPLGRCVGHALEVEEALLCMDGAGPPDLRDLVTTLGGALLWLSGHAGTQAQGAARVAAALDDGSALGRFERMLAAQGVDPGLARALCSGSPAERRQLLPRAREQEELLAPADGTVELVRALPLALVLHELGAGRSRAGEPLRLGVGAELLVDVGQRLRRGTPWLRVHRDGPALSGPQSRALQEALVLSDRAPFAAPSPFAELVLPPQQ
B6: Macrophage-capping protein (protein, UniProt P40121 1-348)
chain: MYTAIPQSGSPFPGSVQDPGLHVWRVEKLKPVPVAQENQGVFFSGDSYLVLHNGPEEVSHLHLWIGQQSSRDEQGACAVLAVHLNTLLGERPVQHREVQGNESDLFMSYFPRGLKYQEGGVESAFHKTSTGAPAAIKKLYQVKGKKNIRATERALNWDSFNTGDCFILDLGQNIFAWCGGKSNILERNKARDLALAIRDSERQGKAQVEIVTDGEEPAEMIQVLGPKPALKEGNPEEDLTADKANAQAAALYKVSDATGQMNLTKVADSSPFALELLISDDCFVLDNGLCGKIYIWKGRKANEKERQAALQVAEGFISRMQYAPNTQVEILPQGHESPIFKQFFKDWK
B7: Serpin B4 (protein, UniProt P48594 1-390)
chain: MNSLSEANTKFMFDLFQQFRKSKENNIFYSPISITSALGMVLLGAKDNTAQQISKVLHFDQVTENTTEKAATYHVDRSGNVHHQFQKLLTEFNKSTDAYELKIANKLFGEKTYQFLQEYLDAIKKFYQTSVESTDFANAPEESRKKINSWVESQTNEKIKNLFPDGTIGNDTTLVLVNAIYFKGQWENKFKKENTKEEKFWPNKNTYKSVQMMRQYNSFNFALLEDVQAKVLEIPYKGKDLSMIVLLPNEIDGLQKLEEKLTAEKLMEWTSLQNMRETCVDLHLPRFKMEESYDLKDTLRTMGMVNIFNGDADLSGMTWSHGLSVSKVLHKAFVEVTEEGVEAAAATAVVVVELSSPSTNEEFCCNHPFLFFIRQNKTNSILFYGRFSSP
B8: Proteolipid protein 2 (protein, UniProt Q04941 1-152)
chain: MADSERLSAPGCWAACTNFSRTRKGILLFAEIILCLVILICFSASTPGYSSLSVIEMILAAIFFVVYMCDLHTKIPFINWPWSDFFRTLIAAILYLITSIVVLVERGNHSKIVAGVLGLIATCLFGYDAYVTFPVRQPRHTAAPTDPADGPV
B9: Protein-glutamine gamma-glutamyltransferase K (protein, UniProt P22735 1-817)
chain: MMDGPRSDVGRWGGNPLQPPTTPSPEPEPEPDGRSRRGGGRSFWARCCGCCSCRNAADDDWGPEPSDSRGRGSSSGTRRPGSRGSDSRRPVSRGSGVNAAGDGTIREGMLVVNGVDLLSSRSDQNRREHHTDEYEYDELIVRRGQPFHMLLLLSRTYESSDRITLELLIGNNPEVGKGTHVIIPVGKGGSGGWKAQVVKASGQNLNLRVHTSPNAIIGKFQFTVRTQSDAGEFQLPFDPRNEIYILFNPWCPEDIVYVDHEDWRQEYVLNESGRIYYGTEAQIGERTWNYGQFDHGVLDACLYILDRRGMPYGGRGDPVNVSRVISAMVNSLDDNGVLIGNWSGDYSRGTNPSAWVGSVEILLSYLRTGYSVPYGQCWVFAGVTTTVLRCLGLATRTVTNFNSAHDTDTSLTMDIYFDENMKPLEHLNHDSVWNFHVWNDCWMKRPDLPSGFDGWQVVDATPQETSSGIFCCGPCSVESIKNGLVYMKYDTPFIFAEVNSDKVYWQRQDDGSFKIVYVEEKAIGTLIVTKAISSNMREDITYLYKHPEGSDAERKAVETAAAHGSKPNVYANRGSAEDVAMQVEAQDAVMGQDLMVSVMLINHSSSRRTVKLHLYLSVTFYTGVSGTIFKETKKEVELAPGASDRVTMPVAYKEYRPHLVDQGAMLLNVSGHVKESGQVLAKQHTFRLRTPDLSLTLLGAAVVGQECEVQIVFKNPLPVTLTNVVFRLEGSGLQRPKILNVGDIGGNETVTLRQSFVPVRPGPRQLIASLDSPQLSQVHGVIQVDVAPAPGDGGFFSDAGGDSHLGETIPMASRGGA

By UniProt entry, the sequences of proteins in these tests, tags left out.
UniProt O15540: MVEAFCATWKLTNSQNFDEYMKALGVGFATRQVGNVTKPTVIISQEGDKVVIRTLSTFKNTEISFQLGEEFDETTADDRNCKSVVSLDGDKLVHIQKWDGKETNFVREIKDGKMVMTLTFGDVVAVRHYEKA
UniProt P53396: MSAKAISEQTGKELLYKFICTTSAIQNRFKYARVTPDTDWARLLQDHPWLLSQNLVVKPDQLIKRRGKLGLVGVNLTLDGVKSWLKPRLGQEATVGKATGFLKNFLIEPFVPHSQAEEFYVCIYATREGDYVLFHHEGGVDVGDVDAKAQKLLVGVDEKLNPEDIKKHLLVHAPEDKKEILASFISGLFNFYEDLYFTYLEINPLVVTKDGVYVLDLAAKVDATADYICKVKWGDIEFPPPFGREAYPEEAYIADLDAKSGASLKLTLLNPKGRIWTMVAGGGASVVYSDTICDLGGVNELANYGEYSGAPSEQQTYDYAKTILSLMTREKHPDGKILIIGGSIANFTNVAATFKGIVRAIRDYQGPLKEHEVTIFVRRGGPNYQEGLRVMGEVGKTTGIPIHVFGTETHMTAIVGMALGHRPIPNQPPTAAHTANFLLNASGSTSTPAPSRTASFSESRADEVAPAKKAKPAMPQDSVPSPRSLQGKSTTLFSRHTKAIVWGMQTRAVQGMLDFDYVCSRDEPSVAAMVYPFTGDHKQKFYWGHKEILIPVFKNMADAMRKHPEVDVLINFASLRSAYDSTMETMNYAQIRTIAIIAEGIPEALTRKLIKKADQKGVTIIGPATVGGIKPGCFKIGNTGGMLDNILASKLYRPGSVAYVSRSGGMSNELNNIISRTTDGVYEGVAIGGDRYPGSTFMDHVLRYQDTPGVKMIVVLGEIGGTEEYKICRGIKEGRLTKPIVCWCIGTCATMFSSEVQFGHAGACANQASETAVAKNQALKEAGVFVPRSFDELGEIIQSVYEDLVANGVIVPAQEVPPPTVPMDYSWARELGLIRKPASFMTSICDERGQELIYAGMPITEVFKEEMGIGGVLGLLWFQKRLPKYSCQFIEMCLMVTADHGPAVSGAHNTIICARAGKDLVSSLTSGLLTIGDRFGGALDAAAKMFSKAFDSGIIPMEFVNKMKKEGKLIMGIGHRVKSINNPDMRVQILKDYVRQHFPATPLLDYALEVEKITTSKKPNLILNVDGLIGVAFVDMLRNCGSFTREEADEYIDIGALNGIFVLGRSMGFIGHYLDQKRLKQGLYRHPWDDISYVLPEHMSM
UniProt P16402: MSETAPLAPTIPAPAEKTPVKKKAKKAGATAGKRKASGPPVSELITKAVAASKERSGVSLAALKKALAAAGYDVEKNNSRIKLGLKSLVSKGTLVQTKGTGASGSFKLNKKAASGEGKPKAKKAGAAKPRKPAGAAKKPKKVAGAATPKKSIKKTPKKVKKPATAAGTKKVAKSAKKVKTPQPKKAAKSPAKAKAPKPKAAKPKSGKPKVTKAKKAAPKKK
UniProt P31947: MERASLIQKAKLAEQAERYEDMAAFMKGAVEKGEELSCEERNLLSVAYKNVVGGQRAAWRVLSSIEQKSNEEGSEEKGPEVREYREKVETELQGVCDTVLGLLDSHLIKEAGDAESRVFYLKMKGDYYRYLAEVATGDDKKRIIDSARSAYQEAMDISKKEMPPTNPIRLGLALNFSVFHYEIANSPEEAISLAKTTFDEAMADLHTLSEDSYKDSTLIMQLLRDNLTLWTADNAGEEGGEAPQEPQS

Legend:
Test in all cases: affinity purification with mass spectrometry; lysate of HEK293T cells overexpressing FLAG-tagged FABP7 (wt or mut), pre-cleared with Protein A Sepharose, anti-FLAG magnetic beads at 4 °C overnight, elution with FLAG peptide, SDS-PAGE, silver-stained bands, LC-MS/MS
[1] = biological target: FLAG-human FABP7wt (human) (UniProt O15540)
[2] = biological target: FLAG-human FABP7wt (human) (UniProt O15540); remark: listed apart in the source
[3] = biological target: FLAG-human FABP7mut (human)

Row | Molecule | binding [1] | binding [2] | binding [3]
1 | Gelsolin (from UniProt P06396 28-782) | binds |  | 
2 | ATP-citrate lyase (human, from HEK293T cells) (from UniProt P53396 1-1101) (enzyme) | binds |  | 
3 | Poly [ADP-ribose] polymerase 1 (from UniProt P09874 1-1014) | binds |  | 
4 | Heat shock protein beta-1 (from UniProt P04792 1-205) | binds |  | 
5 | Epiplakin (from UniProt P58107 1-5088) | binds |  | 
6 | Immunoglobulin heavy constant gamma 1 (from UniProt P01857-1) | binds |  | 
7 | Heat shock protein HSP 90-beta (from UniProt P08238 1-724) | binds |  | 
8 | Histone H1.3 (from UniProt P16402 1-221) | binds |  | 
9 | Serum albumin (from UniProt P02768 25-609) | binds |  | 
10 | 14-3-3 protein sigma (from UniProt P31947 1-248) | binds |  | 
11 | Alpha-actinin-4 (from UniProt O43707 1-911) | binds |  | 
12 | Proteasome subunit alpha type-6 (from UniProt P60900 1-246) | binds |  | 
13 | ATP synthase subunit beta, mitochondrial (from UniProt P06576 48-529) | binds |  | 
14 | B1 |  | binds | no binding
15 | B2 |  | binds | 
16 | B3 |  | binds | no binding
17 | B4 |  | binds | 
18 | B5 |  | binds | no binding
19 | B6 |  | binds | no binding
20 | B7 |  | binds | no binding
21 | B8 |  | binds | no binding
22 | B9 |  | binds | no binding

From article PMC7541391
